Measured values as given in doi:10.1101/2021.12.08.471790.
Results are given in words; binding and its absence hold for the method and conditions named. In cells and extracts the contact can be indirect. Some entries that bind do so weakly or less than the wild type.

Amino acid sequences for entries named in this document (tags omitted). Residues count along the entry.
UniProt Q03431, residues 27-593: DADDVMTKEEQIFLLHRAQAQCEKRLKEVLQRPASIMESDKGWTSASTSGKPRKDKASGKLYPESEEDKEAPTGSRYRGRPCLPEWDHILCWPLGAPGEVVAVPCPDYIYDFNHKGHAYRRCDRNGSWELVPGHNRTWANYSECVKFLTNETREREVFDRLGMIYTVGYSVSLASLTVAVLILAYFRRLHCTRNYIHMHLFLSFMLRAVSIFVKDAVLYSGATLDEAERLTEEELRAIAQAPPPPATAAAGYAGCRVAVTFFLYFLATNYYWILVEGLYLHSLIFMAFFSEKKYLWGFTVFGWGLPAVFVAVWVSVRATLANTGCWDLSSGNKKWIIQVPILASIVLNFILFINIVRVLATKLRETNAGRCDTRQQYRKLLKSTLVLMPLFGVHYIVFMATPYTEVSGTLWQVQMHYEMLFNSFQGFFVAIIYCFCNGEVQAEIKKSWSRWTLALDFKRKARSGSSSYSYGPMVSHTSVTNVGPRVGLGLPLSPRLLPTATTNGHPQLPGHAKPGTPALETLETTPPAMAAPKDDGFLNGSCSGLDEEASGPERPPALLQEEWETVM
UniProt O60895, residues 43-175: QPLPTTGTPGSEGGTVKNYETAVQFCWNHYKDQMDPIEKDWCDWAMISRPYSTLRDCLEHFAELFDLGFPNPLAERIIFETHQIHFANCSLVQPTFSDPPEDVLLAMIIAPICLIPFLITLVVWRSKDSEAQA
UniProt P32121: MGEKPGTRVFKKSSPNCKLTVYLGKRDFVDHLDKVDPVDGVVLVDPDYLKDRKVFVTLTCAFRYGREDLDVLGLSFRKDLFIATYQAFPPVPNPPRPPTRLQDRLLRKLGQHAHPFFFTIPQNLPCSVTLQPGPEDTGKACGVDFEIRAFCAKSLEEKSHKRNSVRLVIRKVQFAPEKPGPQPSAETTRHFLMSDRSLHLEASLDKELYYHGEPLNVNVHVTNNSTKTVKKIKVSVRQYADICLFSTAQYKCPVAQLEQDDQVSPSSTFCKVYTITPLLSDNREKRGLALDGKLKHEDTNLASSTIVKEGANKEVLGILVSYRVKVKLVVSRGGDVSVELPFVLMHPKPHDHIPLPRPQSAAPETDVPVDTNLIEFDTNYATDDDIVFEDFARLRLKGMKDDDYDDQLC

Legend:
[1] = biological target: PTH1R labelled with a C-terminal mCitrine (HA-PTH1R_(mCitrine)) (human) (UniProt Q03431); experiment: FRET or BRET
[2] = biological target: HA-PTH1R_(NanoLuc) (human) (UniProt Q03431); experiment: FRET or BRET

Row | binding [1] | binding [2] | Substance
1 | binds |  | RAMP2 labelled at its intracellular C-terminus with mTurquoise2 (from UniProt O60895 43-175)
2 |  | binds | β-arrestin2_(mVenus) (from UniProt P32121 1-409)
